Results published in PubChem BioAssay AID504467 (National Center for Advancing Translational Sciences (NCATS), 2011).
Hit rate of the full screen: of about 330,000 compounds, about 7,700 (2.3%) were called active. Inconclusive results, whose numbers are uncertain, are shown with a selection of clear calls. Calls come from the whole dose curve; as a rule, active = well fitted inhibition curve with a large enough effect; inconclusive = small, poorly fitted or top-dose-only effect, or effect the other way; inactive = flat fitted curve, though single readings scatter. Potencies beside an inconclusive call are fits to weak or partial responses and may not hold up.

test: qHTS screen for small molecules that inhibit ELG1-dependent DNA repair in human embryonic kidney (HEK293T) cells expressing luciferase-tagged ELG1; settings: HEK293T ELG1-luciferase reporter, luminescence, 16 h, DNA damage induced by 5-fluorouridine; series mostly up to 46.1 µM; note: nearly all actives have a fitted effect of over 55% in size
Outline: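 Cells (2,000 per well) received 5-fluorouridine plus test compound or DMSO and were incubated 16 hr at 37 °C, 5% CO2. Luciferase activity was read by luminescence 30 min after ONE-Glo addition; signal suppression marked inhibition of damage-induced ELG1 function.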
Potency is the fitted concentration of half-maximal effect.

| SMILES | Potency |
| --- | --- |
| CCOC(=O)C1CCN(C(=O)c2oc3ccc(S(=O)(=O)N4CCCCCC4)cc3c2C)CC1 | inconclusive: 18.4 µM [inhibitor, partial curve] |
| CC(=O)Nc1ccc(C(=O)COC(=O)C2CC2C)c(F)c1 (centres undefined) | inconclusive: 11.6 µM [activator, partial curve, poor fit] |
| Cc1cccc2cc(CN(Cc3nnnn3Cc3ccccc3)C3CCCC3)c(=O)[nH]c12 | active: 20.6 µM |
| O=S(=O)(NCc1ccco1)c1cnc(Cl)c(Br)c1 | inconclusive: 32.6 µM [inhibitor, single point] |
| COC(=O)c1cc(NC(=O)c2ccc(OC)cc2)c(=O)oc1C | inconclusive: 6.51 µM [activator, partial curve, poor fit] |
| OC1(c2nc3ccccc3[nH]2)CCCCC1 | inactive |
| O=C(Nc1ccc2nsnc2c1)N1CCCCCC1 | inconclusive: 18.4 µM [activator, partial curve] |
| CC(=O)Oc1ccc(C(=O)Nc2cccnc2)cc1 | inactive |
| O=C(NCCc1nc2ccccc2[nH]1)c1ccc([N+](=O)[O-])cc1 | inactive |
| COc1cc(CN(C(=O)c2cc3ccccc3oc2=O)C2CCS(=O)(=O)C2)cc(OC)c1OC (centres undefined) | inactive |
| CC(C)Nc1ccc(-n2nc3ccccc3[n+]2[O-])cc1 | inconclusive: 2.06 µM [activator, partial curve] |
| Nc1c(SCCC(=O)O)ccc2c1C(=O)c1ccccc1C2=O | inconclusive: 29.1 µM [activator, single point] |
| COc1ccc(C2c3ccc4ccccc4c3Oc3ncn(CCCN(C)C)c(=N)c32)cc1 (centres undefined) | inconclusive: 29.1 µM [inhibitor, single point] |
| COc1ccc(C2=NOC(Cn3nc(C(=O)NCc4ccc5c(c4)OCO5)cc3-c3ccccc3)C2)cc1 (centres undefined) | inconclusive: 31.6 µM [inhibitor, single point] |
| CC(=O)Nc1ccc(NC(=O)CSC2=NS(=O)(=O)c3cc(Cl)ccc3N2)cc1 | inconclusive: 8.2 µM [activator, partial curve, poor fit] |
| N#CCSc1nccc(/C=C/c2ccccc2)n1 | inconclusive: 16.4 µM [activator, single point] |
| CCc1cc(C(=O)Cc2nc3ccccc3[nH]2)c(O)cc1O | inconclusive: 18.4 µM [activator, single point] |
| CC(=O)n1cc([C@@H]2C=C(C(=O)N3CCN(Cc4ccccc4)CC3)O[C@H](OCc3ccc(CO)cc3)C2)c2ccccc21 | active: 9.2 µM |
| COc1cccc(NC(=O)c2ccc3c(O)c(S(=O)(=O)c4ccccc4)c(=O)[nH]c3c2)c1 | inactive |
| C=CCn1c[n+](CC(=O)c2ccc(Br)s2)c2ccccc21 | inactive |
| CC(C)(C)c1ccc(-c2cc(-c3ccccc3O)[nH]n2)cc1 | inconclusive: 1.46 µM [activator, partial curve] |
| CN1CCN(C(=O)c2cc3nc(-c4ccco4)cc(C(F)(F)F)n3n2)CC1 | inactive |
| CC(C)(C)C(=O)Nc1ccc(C(=O)OC2CCCCC2)cc1 | inconclusive: 4.61 µM [activator, partial curve] |

| SMILES | Potency |
| --- | --- |
| CS(=O)(=O)N1CCN(c2nc(-c3ccccc3)cs2)CC1 | inconclusive: 14.6 µM [activator, single point] |
| CC(C)c1c(C#N)c(N)nc(SCC(=O)c2cc3ccccc3oc2=O)c1C#N | inactive |
| N/C(Cc1cccs1)=N\OC(=O)COc1ccc(Br)cc1Cl | inconclusive: 18.4 µM [activator, partial curve, poor fit] |
| Cc1[nH]c2ccccc2c1C(=O)CSc1ccc(F)cc1 | inconclusive: 29.1 µM [activator, single point] |
| CC1(C)Cc2c(sc3c2c(=N)n(Cc2ccco2)c(=O)n3Cc2ccccc2)CO1 | active: 11.6 µM |
| CCC1(C)CC(CCN(Cc2ccco2)C(C)=O)(c2ccccc2)CCO1 (centres undefined) | inconclusive: 16.4 µM [inhibitor, partial curve, poor fit] |
| Cc1ccc(NC(=S)NCC2CCN(C(C)c3ccccc3)C2)cc1 (centres undefined) | inactive |
| Cc1c(C#N)c(NC(=O)CCl)n(Cc2cccs2)c1C | inconclusive: 29.1 µM [inhibitor, single point] |
| O=C(Nc1ccc(Nc2ccccc2)cc1)c1ccc(Br)o1 | inconclusive: 13 µM [activator, partial curve] |
| O=C(COC(=O)/C=C/c1ccc([N+](=O)[O-])cc1)NCC1CCCCC1 | inconclusive: 13 µM [activator, partial curve, poor fit] |
| COc1ccc(C(=O)N/C(=C\c2ccc(Cl)cc2)C(=O)NCC2CCCO2)cc1 (centres undefined) | inactive |
| O=C(Nc1nnc(C2CC2)s1)c1cc2ccccc2o1 | inconclusive: 18.3 µM [activator, partial curve] |
| CC(C)(C)NC(=O)C[C@H]1C[C@H](C(=O)N2CCCCC2)[C@@]2(CCc3ccccc3)c3[nH]c4ccc(Cl)cc4c3CCN2C1=O | inactive |
| O=C(NC1(C(F)(F)F)N=C2SCCN2C1=O)c1ccccc1F (centres undefined) | inactive |
| Cc1ccc(-c2c[n+](CC(=O)Nc3cc(=O)n(C)c(=O)n3C)c3n2CCC3)cc1 | inconclusive: 0.164 µM [inhibitor, full curve, poor fit] |
| O=C(NCC1CCCO1)c1ccc2c(=O)n(CC3CCCO3)c(=S)[nH]c2c1 (centres undefined) | inactive |
| O=C1CSC(c2cccnc2)N1Cc1ccc(Cl)cc1Cl (centres undefined) | inconclusive: 23.1 µM [inhibitor, partial curve, poor fit] |
| C=CCn1c(=O)c2c(nc3n2CCCN3CCc2ccc(OC)c(OC)c2)n(C)c1=O | inactive |
| Cc1ccc(C(=O)/C=C/c2ccccc2)o1 | inconclusive: 20.6 µM [activator, partial curve, poor fit] |
| CCOC(=O)CCSCC(=O)Nc1cc(C)on1 | inconclusive: 29.1 µM [inhibitor, partial curve, poor fit] |
| Cc1ccc(-c2csc(N3CCC(C(N)=O)CC3)n2)cc1 | inconclusive: 10.3 µM [activator, partial curve] |
| O=C(OCc1ccc(Br)cc1)c1cccc(-c2nnc(-c3ccccc3)o2)c1 | inconclusive: 9.2 µM [activator, partial curve] |
| COc1ccc(CNC(=O)CSc2nc3ccc(N)cc3s2)cc1 | inactive |

| SMILES | Potency |
| --- | --- |
| Cc1nc2ccccc2c(=O)n1/N=C/c1cn(-c2ccccc2)nc1-c1cccs1 | inconclusive: 35.5 µM [inhibitor, single point] |
| O=C(/C=C/c1ccc(Cl)cc1)N1CCN(c2ccc(Cl)cc2[N+](=O)[O-])CC1 | inconclusive: 9.2 µM [inhibitor, partial curve, poor fit] |
| COC(CNC(=O)c1ccc2c(c1)nc(C)n2-c1cc(C)cc(C)c1)OC | inconclusive: 5.8 µM [inhibitor, partial curve, poor fit] |
| COCC(C)n1c(C)cc(C(=O)CSc2nnnn2C2CCCC2)c1C (centres undefined) | inconclusive: 4.11 µM [activator, full curve] |
| CSc1ccc(Cl)c(C(=O)NNC(=O)c2cccs2)c1 | inactive |
| Cc1cc(Nc2ccccc2Cl)nc(-c2ccccc2O)n1 | inconclusive: 23.1 µM [inhibitor, single point] |
| COc1cc(NC(=O)CSc2nc(C)cc(C)n2)cc(OC)c1OC | inconclusive: 32.6 µM [inhibitor, partial curve, poor fit] |
| CCOC(=O)c1c(NC(=O)CC2SC(N)=NC2=O)sc2c1CCCC2 (centres undefined) | inactive |
| Cc1cc2c(cc1C)N(CC(=O)N1CCCC1)C(=O)CC(c1ccccc1)=N2 | inconclusive: 16.4 µM [activator, partial curve] |
| COC(=O)c1cn(C(=O)c2ccc(F)cc2)c2ccccc12 | inconclusive: 29.1 µM [activator, partial curve, poor fit] |
| CCCNc1nc2c(c(=O)n(C)c(=O)n2C)n1CCc1ccccc1 | inconclusive: 20.6 µM [inhibitor, partial curve, poor fit] |
| COc1ccc2c(c1OC)C(=O)N1c3ccccc3COC21 (centres undefined) | inconclusive: 5.8 µM [activator, partial curve] |
| Cc1ccc(Oc2ncnc3sccc23)cc1 | inconclusive: 16.4 µM [activator, partial curve] |
| O=C(NC1CCCCC1)N1CCCC(c2nc(-c3cccs3)no2)C1 (centres undefined) | inconclusive: 17.8 µM [inhibitor, single point] |
| COc1cccc(CNC(=O)C2CCN(S(=O)(=O)N3CC(C)CC(C)C3)CC2)c1 (centres undefined) | inconclusive: 32.6 µM [inhibitor, single point] |
| c1ccc(Nc2nc(-c3ccncc3)nc3ccccc23)cc1 | active: 2.06 µM |
| Cc1ccccc1OCCCC(=O)Nc1nccs1 | inconclusive: 20.6 µM [inhibitor, single point] |
| COc1ccc(CCNC(=O)c2cccc3ccccc23)cc1OC | inactive |
| COc1cc(SC)ccc1C(=O)Nc1cccc(C2OCCCO2)c1 | inconclusive: 29.1 µM [activator, single point] |
| O=C(NCCc1nnc2ccc(N3CCCCCC3)nn12)c1ccccc1 | inconclusive: 20.6 µM [activator, partial curve, poor fit] |
| C=CCSc1nc2ccccc2n1C(=O)/C=C/c1cc(OC)c(OC)c(OC)c1 | inconclusive: 16.4 µM [inhibitor, partial curve] |
| O=C(N/N=C/c1cccc(O)c1)c1ccc(COc2cccc3cccnc23)cc1 | inactive |
| CC(C)(C)C(=O)/C=C1\SCC(=O)N1CC(=O)N1CCN(c2ccccc2)CC1 | inconclusive: 23.1 µM [inhibitor, partial curve, poor fit] |

Nothing new here: 6 of the compounds above.

| SMILES | Potency |
| --- | --- |
| Cc1c(C#N)c(NC(=O)CCl)n(Cc2cccs2)c1C | inconclusive: 29.1 µM [inhibitor, single point] |
| O=C(Nc1ccc(Nc2ccccc2)cc1)c1ccc(Br)o1 | inconclusive: 13 µM [activator, partial curve] |
| O=C(COC(=O)/C=C/c1ccc([N+](=O)[O-])cc1)NCC1CCCCC1 | inconclusive: 13 µM [activator, partial curve, poor fit] |
| COc1ccc(C(=O)N/C(=C\c2ccc(Cl)cc2)C(=O)NCC2CCCO2)cc1 (centres undefined) | inactive |
| O=C(Nc1nnc(C2CC2)s1)c1cc2ccccc2o1 | inconclusive: 18.3 µM [activator, partial curve] |
| CC(C)(C)NC(=O)C[C@H]1C[C@H](C(=O)N2CCCCC2)[C@@]2(CCc3ccccc3)c3[nH]c4ccc(Cl)cc4c3CCN2C1=O | inactive |
